In the supplement of paper PMC10849652:
Some of the results follow.

Amino acid sequences for entries named in this document (tags omitted). A change or cut given only in a name is not applied to a line headed by its entry.
UniProt P25774, whole entry, looked up: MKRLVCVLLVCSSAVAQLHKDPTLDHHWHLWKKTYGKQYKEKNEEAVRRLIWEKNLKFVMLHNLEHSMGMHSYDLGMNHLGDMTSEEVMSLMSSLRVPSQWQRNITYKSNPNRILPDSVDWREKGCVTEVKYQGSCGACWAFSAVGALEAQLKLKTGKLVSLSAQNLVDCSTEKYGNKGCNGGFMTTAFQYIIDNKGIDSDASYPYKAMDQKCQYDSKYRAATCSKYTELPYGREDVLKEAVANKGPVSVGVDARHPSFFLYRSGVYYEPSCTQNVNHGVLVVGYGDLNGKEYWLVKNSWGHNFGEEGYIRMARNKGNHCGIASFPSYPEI
UniProt Q9UJU6: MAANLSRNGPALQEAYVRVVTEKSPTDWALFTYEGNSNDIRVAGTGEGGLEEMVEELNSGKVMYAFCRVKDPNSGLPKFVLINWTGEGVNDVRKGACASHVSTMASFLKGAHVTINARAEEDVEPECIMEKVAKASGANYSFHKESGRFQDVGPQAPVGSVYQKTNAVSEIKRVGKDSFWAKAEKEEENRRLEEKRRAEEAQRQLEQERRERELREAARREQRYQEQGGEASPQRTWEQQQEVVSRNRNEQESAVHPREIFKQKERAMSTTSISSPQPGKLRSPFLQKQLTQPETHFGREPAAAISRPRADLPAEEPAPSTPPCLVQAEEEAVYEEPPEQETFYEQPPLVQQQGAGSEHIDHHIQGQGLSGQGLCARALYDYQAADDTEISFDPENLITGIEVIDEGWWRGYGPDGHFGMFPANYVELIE
UniProt Q6ZWL3: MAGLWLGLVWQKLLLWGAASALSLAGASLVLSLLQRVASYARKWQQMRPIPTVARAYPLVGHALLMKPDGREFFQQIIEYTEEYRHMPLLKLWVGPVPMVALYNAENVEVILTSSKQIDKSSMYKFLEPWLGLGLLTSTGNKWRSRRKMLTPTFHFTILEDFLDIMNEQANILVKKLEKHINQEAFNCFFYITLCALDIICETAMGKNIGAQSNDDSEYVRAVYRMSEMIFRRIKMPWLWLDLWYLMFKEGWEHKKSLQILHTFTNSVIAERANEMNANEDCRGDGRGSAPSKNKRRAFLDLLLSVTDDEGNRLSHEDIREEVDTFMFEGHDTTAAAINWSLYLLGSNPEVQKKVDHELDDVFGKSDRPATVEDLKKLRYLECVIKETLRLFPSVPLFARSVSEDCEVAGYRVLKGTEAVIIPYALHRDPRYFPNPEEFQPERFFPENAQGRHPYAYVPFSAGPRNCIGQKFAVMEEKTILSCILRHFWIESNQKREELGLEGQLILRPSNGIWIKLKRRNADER
UniProt Q9BTE7: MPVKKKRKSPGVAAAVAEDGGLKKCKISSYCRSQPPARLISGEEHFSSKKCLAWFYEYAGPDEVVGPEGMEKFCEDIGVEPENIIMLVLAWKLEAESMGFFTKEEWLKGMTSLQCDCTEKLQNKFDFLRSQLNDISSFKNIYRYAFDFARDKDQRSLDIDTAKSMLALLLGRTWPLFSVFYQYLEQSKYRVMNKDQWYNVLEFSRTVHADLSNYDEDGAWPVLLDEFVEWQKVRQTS
UniProt Q99418: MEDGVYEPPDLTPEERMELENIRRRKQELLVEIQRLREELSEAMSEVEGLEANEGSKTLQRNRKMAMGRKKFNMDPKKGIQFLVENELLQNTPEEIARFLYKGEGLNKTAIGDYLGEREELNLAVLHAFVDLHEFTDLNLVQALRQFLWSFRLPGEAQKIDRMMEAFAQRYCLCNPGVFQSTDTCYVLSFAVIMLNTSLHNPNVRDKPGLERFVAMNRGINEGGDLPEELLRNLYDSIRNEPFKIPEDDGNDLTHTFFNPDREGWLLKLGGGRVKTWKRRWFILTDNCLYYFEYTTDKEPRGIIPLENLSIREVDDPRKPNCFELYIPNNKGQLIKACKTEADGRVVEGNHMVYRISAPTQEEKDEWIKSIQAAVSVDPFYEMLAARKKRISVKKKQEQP

What was measured:
Experiment in all cases: log2 fold change, soluble protein after heating vs DMSO (PISA); higher = thermal stabilisation; K562 cells, 10 uM, 30 min; active = over 0.2 and 3.5 SD of the protein, either way, in both replicates (recomputed)
[1] = compound: Cc1cccc(CC(=O)N2CCc3c2ccc(-c2cn(C)c4ncnc(N)c24)c3F)n1
Method in brief: (§1)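 K562 cells (2×10^6 cells/mL) were treated with 10 μM compound for 30 min, and aliquots were heated for 3 min over 48°C-58°C. Pooled aliquots were extracted in PBS with 0.5% NP-40 at 4°C, and the supernatant after 21,000xg for 90 min was measured by TMTpro 16plex LC-MS/MS with channel sums equalised. Reported thermal stability, relative to control samples and from duplicates, is a log2 fold change.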

dasatinib = compound: Cc1nc(Nc2ncc(C(=O)Nc3c(C)cccc3Cl)s2)cc(N2CCN(CCO)CC2)n1 [dasatinib]
Method in brief: as §1

[2] = compound: Cn1cc(-c2ccc3c(c2)CCN3C(=O)Cc2cccc(C(F)(F)F)c2)c2c(N)ncnc21
Method in brief: as §1

[3] = compound: Cn1cc(-c2ccc3nnc(C(F)(F)c4ccc5ncccc5c4)n3n2)cn1
Method in brief: as §1

[4] = compound: NC(=O)Nc1cc(-c2cccc(F)c2)sc1C(=O)N[C@H]1CCCNC1
Method in brief: as §1

[5] = compound: NCC(=O)Nc1ccc(-n2nc(C(F)(F)F)cc2-c2ccc3c(ccc4ccccc43)c2)cc1
Method in brief: as §1

entinostat = compound: Nc1ccccc1NC(=O)c1ccc(CNC(=O)OCc2cccnc2)cc1 [entinostat]
Method in brief: as §1

vorinostat = compound: O=C(CCCCCCC(=O)Nc1ccccc1)NO [vorinostat]
Method in brief: as §1

citarinostat = compound: O=C(CCCCCCNC(=O)c1cnc(N(c2ccccc2)c2ccccc2Cl)nc1)NO [citarinostat]
Method in brief: as §1

[6] = compound: c1cc(OCCN2CCCCC2)cc(-c2n[nH]c3ccc(-c4nnc[nH]4)cc23)c1
Method in brief: as §1

[7] = compound: NC(=O)c1cnc(N[C@@H]2CCCC[C@@H]2N)nc1Nc1cccc(-n2nccn2)c1
Method in brief: as §1

[8] = compound: O=C1NC(=O)C(c2cnc3ccccn23)=C1c1cn2c3c(cc(F)cc13)CN(C(=O)N1CCCCC1)CC2
Method in brief: as §1

mubritinib = compound: FC(F)(F)c1ccc(/C=C/c2nc(COc3ccc(CCCCn4ccnn4)cc3)co2)cc1 [mubritinib]
Method in brief: as §1

[9] = compound: NC1(c2ccc(-c3nc4ccn5c(=O)[nH]nc5c4cc3-c3ccccc3)cc2)CCC1
Method in brief: as §1

silmitasertib = compound: O=C(O)c1ccc2c(c1)nc(Nc1cccc(Cl)c1)c1ccncc12 [silmitasertib]
Method in brief: as §1

bafetinib = compound: Cc1ccc(NC(=O)c2ccc(CN3CC[C@H](N(C)C)C3)c(C(F)(F)F)c2)cc1Nc1nccc(-c2cncnc2)n1 [bafetinib]
Method in brief: as §1

tipifarnib = compound: Cn1cncc1[C@@](N)(c1ccc(Cl)cc1)c1ccc2c(c1)c(-c1cccc(Cl)c1)cc(=O)n2C [tipifarnib]
Method in brief: as §1

Measured: log2 fold change

CTSS (UniProt P25774)
inactive: [1] -0.063 | dasatinib 0.052 | [2] -0.07 | [3] -0.028 | [4] -0.054 | [5] 0.053 | entinostat -0.013 | vorinostat 0.15 | citarinostat 0.19 | [6] -0.089

DBNL (UniProt Q9UJU6)
inactive: [2] 0.308

CYP4V2 (UniProt Q6ZWL3)
inactive: [1] -0.022 | dasatinib -0.018 | [2] 0.062 | [3] 0.058 | [7] 0.102 | [5] 0.027 | vorinostat 0.048 | citarinostat 0.024 | [8] 0.009 | [6] 0.011

DCUN1D5 (UniProt Q9BTE7)
inactive: [1] -0.073 | [3] -0.069 | mubritinib 0.019 | [7] 0.019 | [9] -0.201 | [5] -0.253 | vorinostat -0.061 | silmitasertib 0.06

CYTH2 (UniProt Q99418)
inactive: bafetinib -0.122 | dasatinib -0.049 | tipifarnib 0.081 | mubritinib 0.01 | [7] -0.074 | [9] -0.08 | silmitasertib -0.038
